# From paper doi:10.1101/2025.08.09.669463
# No constants are given. Whether binding was seen depends on the method and setting. In cells and extracts the contact can be indirect. Sequences can lack the tags named with a protein.
# Biological target: T1, AtATG8A, recombinant, for GST pull-down (Arabidopsis thaliana) (UniProt Q8LEM4)
# T1 sequence: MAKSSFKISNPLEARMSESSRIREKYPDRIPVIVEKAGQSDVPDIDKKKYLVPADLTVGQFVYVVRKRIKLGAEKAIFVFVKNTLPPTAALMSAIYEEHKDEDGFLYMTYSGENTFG
# Experiment: pull-down
substance,measurement,value
"AtDCP1, recombinant (Arabidopsis thaliana)",binding,no binding
